From article PMC10469627, “Molecular basis of the glycosomal targeting of PEX11 and its mislocalization to mitochondrion in trypanosomes” (Frontiers in Cell and Developmental Biology, 2023)
Results are given in words; binding and its absence hold for the method and conditions named. Some results given as binding are weak or reduced against the parent protein; the word gives no strength. Where a sequence is shown, tags or fusion partners need not be part of it.

T1: GAL4 BD-HsPEX11_(1-73aa) (PEX11α) (human) (UniProt O75192)
T1 sequence: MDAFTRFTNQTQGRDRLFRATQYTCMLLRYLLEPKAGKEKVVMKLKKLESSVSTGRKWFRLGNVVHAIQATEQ

T2: GAL4 BD-HsPEX11_(1-73aa) (PEX11β) (human) (UniProt O96011)
T2 sequence: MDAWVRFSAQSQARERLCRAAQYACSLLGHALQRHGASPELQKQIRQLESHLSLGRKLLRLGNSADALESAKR

T3: GAL4 BD-ScPEX17_(167-199aa) (S. cerevisiae) (UniProt P40155)
T3 sequence: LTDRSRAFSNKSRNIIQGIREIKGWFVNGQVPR


How the values were obtained:
Assay in all cases: two-hybrid; GAL4 BD-HsPEX11 N-terminal constructs (pPC97) and GAL4 AD-HsPEX19 (pPC86) co-transformed in Δpex19 PCY2; colony-lift filter assay and liquid ONPG assay, three replicates; ScPEX14-ScPEX17 as positive control
[1] = target: T1, GAL4 BD-HsPEX11_(1-73aa) (PEX11α) (human)
[2] = target: T2, GAL4 BD-HsPEX11_(1-73aa) (PEX11β) (human)
[3] = target: T3, GAL4 BD-ScPEX17_(167-199aa) (S. cerevisiae)

binding [1] | binding [2] | binding [3] | Binder
no binding | binds |  | GAL4 AD-HsPEX19 (protein, UniProt P40855 1-299) MAAAEEGCSVGAEADRELEELLESALDDFDKAKPSPAPPSTTTAPDASGPQKRSPGDTAKDALFASQEKFFQELFDSELASQATAEFEKAMKELAEEEPHLVEQFQKLSEAAGRVGSDMTSQQEFTSCLKETLSGLAKNATDLQNSSMSEEELTKAMEGLGMDEGDGEGNILPIMQSIMQNLLSKDVLYPSLKEITEKYPEWLQSHRESLPPEQFEKYQEQHSVMCKICEQFEAETPTDSETTQKARFEMVLDLMQQLQDLGHPPKELAGEMPPGLNFDLDALNLSGPPGASGEQCLIM
 |  | binds | GAL4 AD-ScPEX14 (protein, UniProt P53112 1-341) MSDVVSKDRKALFDSAVSFLKDESIKDAPLLKKIEFLKSKGLTEKEIEIAMKEPKKDGIVGDEVSKKIGSTENRASQDMYLYEAMPPTLPHRDWKDYFVMATATAGLLYGAYEVTRRYVIPNILPEAKSKLEGDKKEIDDQFSKIDTVLNAIEAEQAEFRKKESETLKELSDTIAELKQALVQTTRSREKIEDEFRIVKLEVVNMQNTIDKFVSDNDGMQELNNIQKEMESLKSLMNNRMESGNAQDNRLFSISPNGIPGIDTIPSASEILAKMGMQEESDKEKENGSDANKDDNAVPAWKKAREQTIDSNASIPEWQKNTAANEISVPDWQNGQVEDSIP
